PubChem BioAssay AID1259254 – NCATS | 2017
The whole screen tested about 59,000 reagents; this is a random part of them. Of all reagents, about 1,550 (2.6%) were called active. 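G2 share is only a proxy for re-replication; each gene was hit by three separate siRNAs, and active genes were retested.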 Entries without a mark were called inactive. Reagents against one gene are numbered here. Further read-outs or replicates are left out here. Not given: the amount of reagent.

Assay: 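Finding genes that stop cells copying their DNA twice in one cycle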 (primary screen)
System: human HCT116 colorectal cancer cells
Reagent: single siRNA against human genes
Time to read-out: 3 days
Detection: 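Nuclei stained with Hoechst and imaged; cell-cycle phase assigned by DNA content; G2 share scaled per plate, non-targeting siRNA 0%, GMNN siRNA 100%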
Reading the numbers: G2 robust z-score and G2 cells, % of GMNN control: higher = more G2 cells, more excess DNA replication
Hit rule: 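Active siRNAs have a G2 robust z of 5 or more median absolute deviations over the median, which in these data means about 38% or higher of GMNN control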

target	reagent	G2 robust z-score	G2 cells, % of GMNN control
GARIN4 (golgi associated RAB2 interactor family member 4)	1	0.429	5.98
GARIN4 (golgi associated RAB2 interactor family member 4)	2	1.21	11.5
GARIN4 (golgi associated RAB2 interactor family member 4)	3	0.41	5.85
SS18 (SS18 subunit of BAF chromatin remodeling complex)	1	-1.11	-4.83
SS18 (SS18 subunit of BAF chromatin remodeling complex)	2	0.243	4.68
SS18 (SS18 subunit of BAF chromatin remodeling complex)	3	3.85	30
TXNDC17 (thioredoxin domain containing 17)	1	2.47	20.3
TXNDC17 (thioredoxin domain containing 17)	2	-0.079	2.41
TXNDC17 (thioredoxin domain containing 17)	3	-0.184	1.67
CDR2L (cerebellar degeneration related protein 2 like)	1	-0.993	-4.02
CDR2L (cerebellar degeneration related protein 2 like)	2	0.508	6.54
CDR2L (cerebellar degeneration related protein 2 like)	3	-0.32	0.717
SPTBN1 (spectrin beta, non-erythrocytic 1)	1	-0.713	-2.05
SPTBN1 (spectrin beta, non-erythrocytic 1)	2	-0.137	2
SPTBN1 (spectrin beta, non-erythrocytic 1)	3	-0.0152	2.86
RGL1 (ral guanine nucleotide dissociation stimulator like 1)	1	-0.6	-1.26
RGL1 (ral guanine nucleotide dissociation stimulator like 1)	2	-1.19	-5.43
RGL1 (ral guanine nucleotide dissociation stimulator like 1)	3	0.884	9.19
LPAR2 (lysophosphatidic acid receptor 2)	1	2.69	21.9
LPAR2 (lysophosphatidic acid receptor 2)	2	2.96	23.8
LPAR2 (lysophosphatidic acid receptor 2)	3	-0.409	0.0885
TCERG1 (transcription elongation regulator 1)	1	-0.511	-0.627
TCERG1 (transcription elongation regulator 1)	2	0.723	8.05
TCERG1 (transcription elongation regulator 1)	3	2.31	19.2
TIRAP (TIR domain containing adaptor protein)	1	-1.63	-8.5
TIRAP (TIR domain containing adaptor protein)	2	-0.442	-0.145
TIRAP (TIR domain containing adaptor protein)	3	-0.63	-1.47
FZD8 (frizzled class receptor 8)	1	5.15 (active)	39.2
FZD8 (frizzled class receptor 8)	2	-0.264	1.11
FZD8 (frizzled class receptor 8)	3	0.32	5.22
